No constants are given. Whether binding was seen depends on the method and setting. Some binding calls cover weakened binding; strength is not graded here.
How the values were obtained:
[1] = target: human miniplasmin (human) (UniProt P00747); test: dot blot: 50 ng ligand on nitrocellulose, 100 ng/ml VDAC in solution, detected with anti-VDAC antibody and ECL
[2] = target: human plasminogen (human) (UniProt P00747); test: as above

The chains behind the UniProt entries cited, without tags or fusion partners. Where a name states a change or a piece, a line headed by the entry shows the natural chain unless it says otherwise. A line that says so, or that is headed by a name, gives the form on record, which may keep a tag or linker. Residues count along the entry.
UniProt P00747: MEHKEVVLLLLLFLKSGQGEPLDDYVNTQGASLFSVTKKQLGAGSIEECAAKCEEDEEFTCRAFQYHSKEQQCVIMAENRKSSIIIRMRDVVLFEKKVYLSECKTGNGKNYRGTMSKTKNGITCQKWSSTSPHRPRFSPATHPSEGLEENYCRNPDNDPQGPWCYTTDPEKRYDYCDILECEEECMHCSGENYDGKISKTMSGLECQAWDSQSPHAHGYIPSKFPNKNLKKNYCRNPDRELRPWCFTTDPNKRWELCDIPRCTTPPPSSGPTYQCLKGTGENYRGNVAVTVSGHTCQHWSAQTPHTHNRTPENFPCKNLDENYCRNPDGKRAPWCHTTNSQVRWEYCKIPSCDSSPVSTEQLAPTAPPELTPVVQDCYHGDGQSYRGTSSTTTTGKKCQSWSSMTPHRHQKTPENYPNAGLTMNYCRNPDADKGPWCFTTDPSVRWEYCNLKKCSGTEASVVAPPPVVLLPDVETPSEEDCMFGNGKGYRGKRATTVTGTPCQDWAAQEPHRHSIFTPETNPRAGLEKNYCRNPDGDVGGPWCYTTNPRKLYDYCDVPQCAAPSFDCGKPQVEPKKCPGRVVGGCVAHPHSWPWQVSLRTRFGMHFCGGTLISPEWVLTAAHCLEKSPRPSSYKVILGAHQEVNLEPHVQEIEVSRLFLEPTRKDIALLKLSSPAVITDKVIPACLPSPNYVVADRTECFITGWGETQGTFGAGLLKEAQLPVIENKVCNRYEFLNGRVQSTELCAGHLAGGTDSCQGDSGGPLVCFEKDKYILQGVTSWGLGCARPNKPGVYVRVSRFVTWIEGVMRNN
human plasminogen: residues 20-810 of P00747
human miniplasmin: residues 462-810 of P00747
purified mouse VDAC protein (Q3U6K8, form named): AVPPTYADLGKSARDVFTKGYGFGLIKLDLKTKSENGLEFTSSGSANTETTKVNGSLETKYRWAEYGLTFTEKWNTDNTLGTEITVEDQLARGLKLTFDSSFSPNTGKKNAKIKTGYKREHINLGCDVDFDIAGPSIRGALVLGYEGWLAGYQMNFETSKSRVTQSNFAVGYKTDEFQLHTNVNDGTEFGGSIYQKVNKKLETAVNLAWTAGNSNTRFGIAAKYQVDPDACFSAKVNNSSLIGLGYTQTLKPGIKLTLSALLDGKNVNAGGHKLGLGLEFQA

binding [1]: binds
binding [2]: binds
Substance: purified mouse VDAC protein (from UniProt Q3U6K8 2-283) (receptor)

Reference: patent EP1615032A1 (Kido, Hiroshi, dated 2006)
